Record: PubChem BioAssay AID743121 (NCATS, 2013)

Assay: 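Partners whose loss is lethal together with topoisomerase I blockade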 (primary screen)
System: MDA-MB-231 cells, a human breast cancer line
Knock-down reagent: single siRNA against human genes, 20 nM siRNA (0.8 pmol per well)
Timing: 120 h (drug added 48 h after transfection, read 72 h later)
Conditions: camptothecin 20 nM (about EC30) for 72 h; vehicle 0.1% DMSO in parallel plates
Read-out: 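Cell viability by ATP luminescence (CellTiter-Glo) as % of non-targeting siRNA wells, and the log2 ratio of viability without drug over viability with camptothecin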
Direction: log2 vehicle/camptothecin viability: higher = stronger sensitisation to camptothecin
Active means: 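Each gene scored by redundant siRNA activity (RSA) over its individual siRNA ratios; a gene is called active at p < 0.001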
Shown is a random part of about 26,000 reagents. In the full data, 167 (0.63%) got an active call. 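Calls are per gene from RSA p-values that are not deposited; an individual active-marked siRNA can sensitise only weakly.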 A number with no mark means an inactive call. The numbers tell different reagents against one gene apart. Not all columns of the deposit are shown.

LRRC2 (GeneID 79442) #1 scored log2 vehicle/camptothecin viability -0.309.
LRRC2 (GeneID 79442) #2 scored log2 vehicle/camptothecin viability 0.172.
After knock-down of LRRC2 (GeneID 79442) #3, the screen gave log2 vehicle/camptothecin viability -0.344.
LRRC2 (GeneID 79442) #4 showed log2 vehicle/camptothecin viability -0.232.
Depletion of ALOX12P2 (GeneID 245) #1 came out at: log2 vehicle/camptothecin viability -0.0196.
ALOX12P2 (GeneID 245) #2 showed log2 vehicle/camptothecin viability -0.315.
With knock-down of ALOX12P2 (GeneID 245) #3, the record shows log2 vehicle/camptothecin viability 0.78.
Depletion of SEMA6D (GeneID 80031) #1 resulted in: log2 vehicle/camptothecin viability -0.116.
SEMA6D (GeneID 80031) #2 gave log2 vehicle/camptothecin viability -0.0655.
SEMA6D (GeneID 80031) #3 showed log2 vehicle/camptothecin viability -0.0991.
Against SEMA6D (GeneID 80031) #4, the entry reads log2 vehicle/camptothecin viability 0.54.
CBR4 (GeneID 84869) #1 scored log2 vehicle/camptothecin viability -0.21.
CBR4 (GeneID 84869) #2 scored log2 vehicle/camptothecin viability -0.114.
Depletion of CBR4 (GeneID 84869) #3 came out at: log2 vehicle/camptothecin viability 0.191.
With knock-down of CBR4 (GeneID 84869) #4, the record shows log2 vehicle/camptothecin viability 0.397.
MPG (GeneID 4350) #1 scored log2 vehicle/camptothecin viability -0.0868.
After knock-down of MPG (GeneID 4350) #2, the screen gave log2 vehicle/camptothecin viability -0.163.
MPG (GeneID 4350) #3 scored log2 vehicle/camptothecin viability -0.308.
For MPG (GeneID 4350) #4, the values are log2 vehicle/camptothecin viability 0.136.
With knock-down of CANX (GeneID 821) #1, the record shows log2 vehicle/camptothecin viability -0.00534.
For CANX (GeneID 821) #2 the deposit lists log2 vehicle/camptothecin viability -0.31.
With knock-down of CANX (GeneID 821) #3 the results were log2 vehicle/camptothecin viability -0.0673.
CANX (GeneID 821) #4 gave log2 vehicle/camptothecin viability -0.132.

Records listed so far whose target name begins with A or a:
ALOX12P2 (GeneID 245) #1 → log2 vehicle/camptothecin viability: -0.0196
ALOX12P2 (GeneID 245) #2 → log2 vehicle/camptothecin viability: -0.315
ALOX12P2 (GeneID 245) #3 → log2 vehicle/camptothecin viability: 0.78

Next entries follow:
Against PNRC1 (GeneID 10957) #1, the entry reads log2 vehicle/camptothecin viability -0.275.
PNRC1 (GeneID 10957) #2 gave log2 vehicle/camptothecin viability -0.186.
PNRC1 (GeneID 10957) #3 gave log2 vehicle/camptothecin viability -0.408.
Against PNRC1 (GeneID 10957) #4 the deposit lists log2 vehicle/camptothecin viability -0.352.
Silencing of CCN1 (GeneID 3491) #1 came out at: log2 vehicle/camptothecin viability -0.164.
Silencing of CCN1 (GeneID 3491) #2 gave: log2 vehicle/camptothecin viability 0.327.
CCN1 (GeneID 3491) #3 gave log2 vehicle/camptothecin viability -0.166.
After knock-down of CCN1 (GeneID 3491) #4, the record shows log2 vehicle/camptothecin viability -0.213.
Depletion of KCNK6 (GeneID 9424) #1 resulted in: log2 vehicle/camptothecin viability -0.0161.
With knock-down of KCNK6 (GeneID 9424) #2 the results were log2 vehicle/camptothecin viability -0.177.
KCNK6 (GeneID 9424) #3 gave log2 vehicle/camptothecin viability 0.276.
Knock-down of P2RX7 (GeneID 5027) #1 resulted in: log2 vehicle/camptothecin viability -0.0153.
After knock-down of P2RX7 (GeneID 5027) #2, the screen gave log2 vehicle/camptothecin viability -0.545.
P2RX7 (GeneID 5027) #3 scored log2 vehicle/camptothecin viability 0.0328.
